# According to patent US11000454B2, “Dental composition” (DENTSPLY SIRONA inc., priority 2016, dated 2021):
# Assay: Differential scanning calorimetry (DSC) of photopolymerization
# Conditions: polymerization enthalpy determined at 37° C.; composition with stabilizer, 0.3 wt.-% CQ, 0.4 wt.-% DMABE; 100 mW/cm^2
# Experimental: Both ΔH and tmax were determined for a composition respectively containing a compound of formula (Ib), (Ic) or comparative compounds (C1), (C2) or (C3), 0.22 to 0.35 mol-% stabilizer, 0.3 wt.-% camphor quinone (CQ) as photosensitizer, and 0.4 wt.-% 4-(dimethylamino) benzoic acid ethylester (DMABE) as coinitiator. For compound of formula (C1), no ΔH and no tmax was detected (indicated by “*”)
# For DSC experiments, compositions containing compound of formula (Ib), (Ic), (C1), (C2) or (C3), 0.22 to 0.35 mol-% of a stabilizer, 0.3 wt.-% camphor quinone (CQ) as photosensitizer and 0.4 wt.-% 4-(dimethylamino) benzoic acid ethylester (DMABE) as coinitiator were provided. In these compositions, the indication mol-% is based on the molar amount of compound of formula (Ib), (Ic), (C1), (C2) or (C3), and the indication wt.-% is based on the total weight of the composition, wherein the remaining mass/weight of the composition is made up of compound of formula (Ib), (Ic), (C1), (C2) or (C3). The compositions were irradiated at 37° C. with SmartLite Focus LED curing light from Dentsply with an Intensity of 100 mW/cm^2, and DSC was carried out with the apparatus Perkin Elmer DSC 7/DPA 7.
row,Structure (SMILES),ΔHØ ± standard deviation
1,"C=CC(=O)N(C/C=C/CN(CCC)C(=O)C=C)CCC [(Ic), N,N′-Bisacryloyl-N,N′-bispropyl-1,4-but-2-endiamine]",−97.345
2,"C=CCN(CCCCN(CC=C)C(=O)C=C)C(=O)C=C [(C2), N,N′-Bisacryloyl-N,N′-bisallyl-1,4-butandiamine, reference compound]",−62.35
3,"C=CC(=O)N(CCC)CCCCN(CCC)C(=O)C=C [(C3), N,N′-Bisacryloyl-N,N′-bispropyl-1,4-butandiamine, reference compound]",−34.70
4,C=CCN(C/C=C/CN(CC=C)C(=O)C=C)C(=O)C=C [(Ia)],−152.905
5,C=CCN(C/C=C/C(C)N(CC=C)C(=O)C=C)C(=O)C=C (centres unmarked) [Compound (Ib)],−136.79
